{"source": "PubChem BioAssay AID1508597 (Cure First, 2020)", "aim": "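Knock-downs altering ovarian cancer cell survival with or without PARP inhibitor rucaparib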 (primary screen)", "system": "human ovarian carcinoma lines grown from tumours: OCI-P5x (papillary serous) and OCI-C5x (clear cell)", "reagents": "siRNA pool against human genes, 1.25 pmol siRNA per well", "duration": "72 h or 96 h, depending on the cell culture", "conditions": "rucaparib 20 µM (about IC30) or vehicle, present until read-out", "detection": "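Luminescent ATP-based viability assay read 72 or 96 h after transfection, depending on culture, given as normalised percent viability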", "scale": "viability, normalised: higher = more viable cells remaining", "rule for the call": "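a well counts as a hit if its normalised viability is under 80 percent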", "meaning of the calls": "active = viability under 80%; inactive = viability 80% or more", "note": "The deposit covers about 2,100 reagents; this is an unselected part. 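Calls flag viability under 80% in either arm, not effects specific to rucaparib; the reference for percent is not stated.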 Some reagents were tested in more than one well and are listed for each. The record does not give: the 100% reference."}
{"Target gene": "UIMC1", "rucaparib or vehicle": "Rucaparib", "cell line": "OCI-C5x (clear cell)", "technical replicate": "1", "viability, normalised (%)": 59, "activity call": "active"}
{"Target gene": "UIMC1", "rucaparib or vehicle": "Rucaparib", "cell line": "OCI-C5x (clear cell)", "technical replicate": "1", "viability, normalised (%)": 62.5, "activity call": "active"}
{"Target gene": "UIMC1", "rucaparib or vehicle": "Rucaparib", "cell line": "OCI-C5x (clear cell)", "technical replicate": "2", "viability, normalised (%)": 60.3, "activity call": "active"}
{"Target gene": "UIMC1", "rucaparib or vehicle": "Rucaparib", "cell line": "OCI-C5x (clear cell)", "technical replicate": "2", "viability, normalised (%)": 51.9, "activity call": "active"}
{"Target gene": "UIMC1", "rucaparib or vehicle": "Rucaparib", "cell line": "OCI-C5x (clear cell)", "technical replicate": "3", "viability, normalised (%)": 50.8, "activity call": "active"}
{"Target gene": "UIMC1", "rucaparib or vehicle": "Rucaparib", "cell line": "OCI-C5x (clear cell)", "technical replicate": "3", "viability, normalised (%)": 63.5, "activity call": "active"}
{"Target gene": "UIMC1", "rucaparib or vehicle": "Rucaparib", "cell line": "OCI-P5x (serous)", "technical replicate": "1", "viability, normalised (%)": 74.4, "activity call": "active"}
{"Target gene": "UIMC1", "rucaparib or vehicle": "Rucaparib", "cell line": "OCI-P5x (serous)", "technical replicate": "1", "viability, normalised (%)": 61.7, "activity call": "active"}
{"Target gene": "UIMC1", "rucaparib or vehicle": "Rucaparib", "cell line": "OCI-P5x (serous)", "technical replicate": "2", "viability, normalised (%)": 74, "activity call": "active"}
{"Target gene": "UIMC1", "rucaparib or vehicle": "Rucaparib", "cell line": "OCI-P5x (serous)", "technical replicate": "2", "viability, normalised (%)": 68.3, "activity call": "active"}
{"Target gene": "UIMC1", "rucaparib or vehicle": "Rucaparib", "cell line": "OCI-P5x (serous)", "technical replicate": "3", "viability, normalised (%)": 78.9, "activity call": "active"}
{"Target gene": "UIMC1", "rucaparib or vehicle": "Rucaparib", "cell line": "OCI-P5x (serous)", "technical replicate": "3", "viability, normalised (%)": 59.4, "activity call": "active"}
{"Target gene": "UIMC1", "rucaparib or vehicle": "Vehicle", "cell line": "OCI-C5x (clear cell)", "technical replicate": "1", "viability, normalised (%)": 45.2, "activity call": "active"}
{"Target gene": "UIMC1", "rucaparib or vehicle": "Vehicle", "cell line": "OCI-C5x (clear cell)", "technical replicate": "1", "viability, normalised (%)": 127, "activity call": "inactive"}
{"Target gene": "UIMC1", "rucaparib or vehicle": "Vehicle", "cell line": "OCI-C5x (clear cell)", "technical replicate": "2", "viability, normalised (%)": 46.9, "activity call": "active"}
{"Target gene": "UIMC1", "rucaparib or vehicle": "Vehicle", "cell line": "OCI-C5x (clear cell)", "technical replicate": "2", "viability, normalised (%)": 64.5, "activity call": "active"}
{"Target gene": "UIMC1", "rucaparib or vehicle": "Vehicle", "cell line": "OCI-C5x (clear cell)", "technical replicate": "3", "viability, normalised (%)": 41.7, "activity call": "active"}
{"Target gene": "UIMC1", "rucaparib or vehicle": "Vehicle", "cell line": "OCI-C5x (clear cell)", "technical replicate": "3", "viability, normalised (%)": 40.6, "activity call": "active"}
{"Target gene": "UIMC1", "rucaparib or vehicle": "Vehicle", "cell line": "OCI-P5x (serous)", "technical replicate": "1", "viability, normalised (%)": 72.1, "activity call": "active"}
{"Target gene": "UIMC1", "rucaparib or vehicle": "Vehicle", "cell line": "OCI-P5x (serous)", "technical replicate": "1", "viability, normalised (%)": 80.6, "activity call": "inactive"}
{"Target gene": "UIMC1", "rucaparib or vehicle": "Vehicle", "cell line": "OCI-P5x (serous)", "technical replicate": "2", "viability, normalised (%)": 65.6, "activity call": "active"}
{"Target gene": "UIMC1", "rucaparib or vehicle": "Vehicle", "cell line": "OCI-P5x (serous)", "technical replicate": "2", "viability, normalised (%)": 87.7, "activity call": "inactive"}
{"Target gene": "UIMC1", "rucaparib or vehicle": "Vehicle", "cell line": "OCI-P5x (serous)", "technical replicate": "3", "viability, normalised (%)": 79.6, "activity call": "active"}
{"Target gene": "UIMC1", "rucaparib or vehicle": "Vehicle", "cell line": "OCI-P5x (serous)", "technical replicate": "3", "viability, normalised (%)": 59.3, "activity call": "active"}
